For the data set, the system named is human FSTL1 deletion mutants. Description: Epitope mapping ELISA (Example 3). As to conditions: further fragmented deletion mutants. Type of data set: binding. On the technique in general: An ELISA detects its analyte on a solid surface through an enzyme-linked reagent.

The record followed here is patent US20180021429A1, “ANTICANCER AGENTS OR ANTIMETASTATIC AGENTS USING FSTL1 AND COMBINATION DRUG THEREOF” (PHARMA FOODS INTERNATIONAL CO., LTD., priority 2015, published 2018).

B1: #6-55: chicken-mouse chimeric anti-FSTL1 antibody clone; variable regions SEQ ID NO: 783 (light), 785 (heavy) (antibody, V domains shown)
VH: AVTLDESGGGLQTPGGALSLVCKGSGFTFTSVTMQWVRQAPGKGLEWVASVCSGSSTYYAPAVKGRATISRDNGQSTVRLQLSNLRPEDTGTYYCAKIAGRARWSCTSAAYNIDAWGHGTEVIVSS
VL: ASTQPSSVSAIPGETVKITCSGGGNNYGWYQQRSPGSAPVTVIYYNDNRPSNIPSRFSGSTSGSTSTLTITGVQADDEAIYYCGSWDSNTDSGIFGAGTTLTVL
modifications: mouse constant regions
For the molecule B1, the “putative epitope, amino acid positions of human FSTL1, narrowed down” value (“putative epitope, amino acid positions” for short) is listed as 148-162.

B2: #22: chicken-mouse chimeric anti-FSTL1 antibody clone; variable regions SEQ ID NO: 819 (light), 821 (heavy) (antibody, V domains shown)
VH: AVTLDESGGGLQTPGGALSLVCKASGFTFSSNGMAWVRQAPGKGLELVARINSSGSYTNYGAAVKGRATISRDNGQSTVRLQLNNLRAEDTGTYYCAKGASGYGAYPGNIDAWGHGTEVIVSS
VL: ASTQPSSVSANPGETVKITCSGGSGSYGWFQQKSPGSAPVTVIYWDDRRPSDIPSRFSGSKSGSIHTLTITGVQADDEAVYLCGNAVRSGTGYVGVFGAGTTLTVL
modifications: mouse constant regions
Regarding B2, the “putative epitope, amino acid positions” value is recorded as 193 to 216.

B3: #33: chicken-mouse chimeric anti-FSTL1 antibody clone; variable regions SEQ ID NO: 823 (light), 825 (heavy) (antibody, V domains shown)
VH: AVTLDESGGGLQTPGGGLSLVCKASGFTFSSFNMNWVRQAPGKGLEYVAEISGTGSSTYYGSAVKGRATISRDNGQSTVRLQLNNLRAEDTATYFCARGDGAYSIDAWGHGTEVIVSS
VL: ASTQPSSVSANPGETVEITCSGDSSYYGWFQQKSPGSAPVTVIYDNTNRPSDIPSRFSGSKSGSTATLTITGVRAEDEAVYYCGGYDSSTYDGIFGAGTTLTVL
modifications: mouse constant regions
For the molecule B3, the “putative epitope, amino acid positions” value lay in the range of 48 to 100.
